Data: PMC10238197, “Deafness‐Associated ADGRV1 Mutation Impairs USH2A Stability through Improper Phosphorylation of WHRN and WDSUB1 Recruitment” (Advanced Science, 2023)
Substitutions are numbered along the chain they refer to. These are yes or no findings as the source states them, for the method shown. In cells and extracts the contact can be indirect. Some binding calls cover weakened binding; strength is not graded here. Sequences can lack the tags named with a protein.

Protein sequences, listed by entry. Tags and fused reporters are not part of them. Residues count along the entry.
UniProt Q8VHN7, residues 4333-6298: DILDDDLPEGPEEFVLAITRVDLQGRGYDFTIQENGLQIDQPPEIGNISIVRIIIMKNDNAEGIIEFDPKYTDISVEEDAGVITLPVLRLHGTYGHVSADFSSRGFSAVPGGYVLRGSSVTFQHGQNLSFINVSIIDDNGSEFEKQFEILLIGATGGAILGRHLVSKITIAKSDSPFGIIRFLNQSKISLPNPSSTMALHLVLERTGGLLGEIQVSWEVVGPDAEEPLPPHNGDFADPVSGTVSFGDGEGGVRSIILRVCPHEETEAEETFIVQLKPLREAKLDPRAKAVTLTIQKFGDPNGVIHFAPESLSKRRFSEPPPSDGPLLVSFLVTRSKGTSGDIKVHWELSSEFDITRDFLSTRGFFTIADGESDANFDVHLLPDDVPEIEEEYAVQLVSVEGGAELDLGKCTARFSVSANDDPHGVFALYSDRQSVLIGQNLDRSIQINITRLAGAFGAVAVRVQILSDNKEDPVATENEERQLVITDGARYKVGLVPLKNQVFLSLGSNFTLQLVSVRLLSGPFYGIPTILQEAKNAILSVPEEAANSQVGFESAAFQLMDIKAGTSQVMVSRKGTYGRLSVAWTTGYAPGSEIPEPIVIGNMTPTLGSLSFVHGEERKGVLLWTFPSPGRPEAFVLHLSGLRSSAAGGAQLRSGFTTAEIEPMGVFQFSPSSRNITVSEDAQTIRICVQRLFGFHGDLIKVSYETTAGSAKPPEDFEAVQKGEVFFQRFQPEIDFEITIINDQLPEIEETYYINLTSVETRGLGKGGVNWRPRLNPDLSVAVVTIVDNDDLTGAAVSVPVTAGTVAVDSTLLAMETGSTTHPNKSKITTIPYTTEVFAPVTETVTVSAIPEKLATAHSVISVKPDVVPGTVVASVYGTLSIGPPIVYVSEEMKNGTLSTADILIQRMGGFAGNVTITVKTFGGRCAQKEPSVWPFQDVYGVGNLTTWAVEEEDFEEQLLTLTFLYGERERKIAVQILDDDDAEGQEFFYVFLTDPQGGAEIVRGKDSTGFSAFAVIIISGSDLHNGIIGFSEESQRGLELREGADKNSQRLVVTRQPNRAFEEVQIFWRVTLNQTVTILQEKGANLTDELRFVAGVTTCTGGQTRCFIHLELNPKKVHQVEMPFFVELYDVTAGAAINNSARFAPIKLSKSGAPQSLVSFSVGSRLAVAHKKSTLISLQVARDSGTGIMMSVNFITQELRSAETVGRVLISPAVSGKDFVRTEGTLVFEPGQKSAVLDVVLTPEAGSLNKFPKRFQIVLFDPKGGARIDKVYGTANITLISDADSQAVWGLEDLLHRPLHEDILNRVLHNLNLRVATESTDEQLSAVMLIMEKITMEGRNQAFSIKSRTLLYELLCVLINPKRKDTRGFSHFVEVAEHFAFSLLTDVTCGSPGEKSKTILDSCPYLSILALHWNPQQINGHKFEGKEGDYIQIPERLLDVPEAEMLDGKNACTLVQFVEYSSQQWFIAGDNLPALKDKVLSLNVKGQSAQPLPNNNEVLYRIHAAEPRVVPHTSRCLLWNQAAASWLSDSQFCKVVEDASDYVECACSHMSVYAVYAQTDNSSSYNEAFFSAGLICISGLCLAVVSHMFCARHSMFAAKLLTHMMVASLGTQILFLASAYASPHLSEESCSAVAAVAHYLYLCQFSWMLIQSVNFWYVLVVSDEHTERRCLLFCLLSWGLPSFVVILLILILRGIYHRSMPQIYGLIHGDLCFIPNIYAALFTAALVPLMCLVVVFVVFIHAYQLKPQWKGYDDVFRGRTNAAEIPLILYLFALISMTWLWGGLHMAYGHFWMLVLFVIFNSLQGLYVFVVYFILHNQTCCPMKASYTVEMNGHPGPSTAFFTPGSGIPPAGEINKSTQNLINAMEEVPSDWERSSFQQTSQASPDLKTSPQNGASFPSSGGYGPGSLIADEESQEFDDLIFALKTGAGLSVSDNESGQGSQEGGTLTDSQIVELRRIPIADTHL

How the values were obtained:
Assay in all cases: FRET or BRET; intermolecular FlAsH-BRET saturation in HEK293 cells: fixed amount of WHRN-Nluc, increasing ADGRV1-FlAsH or USH2A-FlAsH; 2.5 µM FlAsH-EDT2, 5 µM coelenterazine-h; net BRET Em530/Em485
[1] = biological target: T1, WHRN-Nluc (L-Z2) D341A (mouse) (UniProt Q80VW5)
T1 sequence: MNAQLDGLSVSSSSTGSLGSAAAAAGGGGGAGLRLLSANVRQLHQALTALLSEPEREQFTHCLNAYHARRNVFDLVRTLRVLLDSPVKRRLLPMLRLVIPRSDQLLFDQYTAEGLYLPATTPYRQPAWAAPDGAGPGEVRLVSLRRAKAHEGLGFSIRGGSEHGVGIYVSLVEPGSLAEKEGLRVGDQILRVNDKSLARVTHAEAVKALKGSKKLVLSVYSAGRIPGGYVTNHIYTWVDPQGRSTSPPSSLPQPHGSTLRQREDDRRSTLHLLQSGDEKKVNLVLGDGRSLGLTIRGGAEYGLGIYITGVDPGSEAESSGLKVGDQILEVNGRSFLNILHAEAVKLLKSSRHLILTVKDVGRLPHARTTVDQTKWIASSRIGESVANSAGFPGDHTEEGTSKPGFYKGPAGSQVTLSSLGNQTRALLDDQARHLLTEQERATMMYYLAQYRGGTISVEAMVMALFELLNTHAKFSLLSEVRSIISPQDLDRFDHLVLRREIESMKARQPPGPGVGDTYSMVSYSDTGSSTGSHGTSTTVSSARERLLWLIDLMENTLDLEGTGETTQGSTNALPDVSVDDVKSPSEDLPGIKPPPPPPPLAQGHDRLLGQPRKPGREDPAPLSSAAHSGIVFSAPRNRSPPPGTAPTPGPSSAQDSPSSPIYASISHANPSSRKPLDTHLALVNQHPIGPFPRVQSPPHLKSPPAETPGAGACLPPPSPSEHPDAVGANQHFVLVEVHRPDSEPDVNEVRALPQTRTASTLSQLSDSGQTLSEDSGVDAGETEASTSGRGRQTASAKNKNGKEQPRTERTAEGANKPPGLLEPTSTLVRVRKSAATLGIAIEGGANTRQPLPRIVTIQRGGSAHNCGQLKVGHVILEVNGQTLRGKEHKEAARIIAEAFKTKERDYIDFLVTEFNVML

[2] = biological target: T2, WHRN-Nluc (L-Z2) K345A (mouse) (UniProt Q80VW5)
T2 sequence: T1 sequence with A341D, K345A

[3] = biological target: T3, WHRN-Nluc (L-Z2) E300A (mouse) (UniProt Q80VW5)
T3 sequence: T1 sequence with E300A, A341D

Measured: binding

ADGRV1-ICL3-FlAsH (from UniProt Q8VHN7 4333-6298) (receptor)
binds: [1] | [2] | [3]
